Reference: the supplement of paper PMC3334620
In all, about 33,000 sequences were measured (“E-score (-0.5 to 0.5)”: median about -0.0014, highest 2% from about 0.25 on). The list shows a part of the results.

These sequences were tested against T1, Cad1 (UniProt P24813) (assay: PBM E-score (8-mer binding enrichment) (E-score (-0.5 to 0.5)); higher = stronger / more preferred TF binding). Details: protein concentration: 100 nM; construct: GST-full length.
T1 sequence: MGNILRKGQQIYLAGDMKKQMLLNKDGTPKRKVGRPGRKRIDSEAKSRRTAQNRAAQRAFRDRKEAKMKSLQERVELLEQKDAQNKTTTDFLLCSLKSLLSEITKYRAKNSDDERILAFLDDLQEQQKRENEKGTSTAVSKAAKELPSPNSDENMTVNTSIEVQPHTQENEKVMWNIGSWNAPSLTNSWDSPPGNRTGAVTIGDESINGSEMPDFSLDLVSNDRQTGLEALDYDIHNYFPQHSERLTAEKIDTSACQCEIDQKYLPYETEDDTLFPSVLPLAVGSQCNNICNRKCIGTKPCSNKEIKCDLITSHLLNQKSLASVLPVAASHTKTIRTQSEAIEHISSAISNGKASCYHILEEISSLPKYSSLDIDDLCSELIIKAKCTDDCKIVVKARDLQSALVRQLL
Description: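 Universal 'all 10-mer' protein binding microarrays (Agilent AMADID 015681) probed with GST-tagged S. cerevisiae TFs (full-length or DBD) made by in vitro transcription/translation (PURExpress), about 100-200 nM. Bound TF was detected with fluorescent anti-GST. Each ungapped 8-mer (which stands for itself and its reverse complement) is scored by the PBM enrichment score (E-score), a modified Wilcoxon-Mann-Whitney statistic from -0.5 to +0.5, computed with the Universal PBM Analysis Suite. Scale: above 0.35 generally sequence-specific binding.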

Row | Sequence | PBM E-score
1 | TACGTTCA | 0.111
2 | ATGATGCG | 0.158
3 | CCGCGCCG | 0.174
4 | CCCGAGTC | 0.0313
5 | CAACGTGA | -0.105
6 | ATTGATCG | 0.0372
7 | ATGGCAGA | 0.131
8 | GTTTGTTA | 0.202
9 | AAACTGCG | -0.107
10 | ATGCGCGG | 0.0897
11 | CAGGAACA | -0.0906
12 | CTAGACAA | 0.0181
13 | CTAGTCGC | -0.0345
14 | AGGGGGGC | -0.471
15 | GACGTGAA | 0.11
16 | AACTAGCC | -0.0573
17 | GAAGCGGC | -0.167
18 | ACAGCAAG | 0.00019
19 | ACGGCCCC | -0.306
20 | AATTTCAG | 0.0613
21 | AATAACCG | -0.0312
22 | ATAACTTG | -0.0128
23 | TCCGTCAA | 0.0759
24 | ATTTACAA | 0.189
25 | AGCCAAGG | 0.0527

Row | Sequence | PBM E-score
26 | AAAACTTA | 0.199
27 | CCTTGCCC | -0.00273
28 | AAGTGTTA | 0.0352
29 | TACTACAA | 0.156
30 | AGACAGCA | -0.075
31 | CATACTCG | 0.101
32 | ACCGAAAG | -0.0907
33 | AATAAACC | 0.0524
34 | TCGCCAGA | 0.0743
35 | ATTAACGC | 0.0741
36 | AGCGGACA | 0.00748
37 | ACATAAAC | 0.0822
38 | TCACCGAA | 0.0638
39 | AATTAGCA | 0.238
40 | CTACTCGA | 0.00532
41 | AAAAAAGA | 0.00316
42 | ACGTGATA | 0.0525
43 | AATCCACG | 0.048
44 | TAAGCATA | 0.197
45 | ATGAAGTC | -0.128
46 | CTAGTACC | -0.0753
47 | GTAGGATA | -0.116
48 | ACGAGAAG | -0.191
49 | CGCCCGAC | -0.0329
50 | AATATAAC | 0.195

Row | Sequence | PBM E-score
51 | AAATGGTT | 0.145
52 | CAGTCCAA | -0.07
53 | ACACGAGA | -0.102
54 | ATGGGCCA | 0.00956
55 | ACTATACC | 0.03
56 | CGTACGGA | 0.116
57 | GTTGACCA | 0.138
58 | AAGTTACT | 0.0457
59 | CCTAGAGG | -0.272
60 | ATAAGCAG | 0.239
61 | ACCCGGGC | -0.177
62 | GCACGTCC | -0.036
63 | CGCGCGCA | 0.242
64 | ATCCTCGC | 0.00072
65 | CACCCCGA | -0.177
66 | TGTTCTAA | 0.144
67 | AACGGGAC | -0.148
68 | ATTAACTC | 0.2
69 | TGGCGCAA | -0.0637
70 | GCCGTGAA | 0.0361
71 | AGAGCACC | -0.227
72 | AGTCGACG | 0.296
73 | AGGGTAGC | -0.0956
74 | AGATTAAG | -0.00576
75 | GGGTGAAA | 0.0237

Row | Sequence | PBM E-score
76 | GGTGTCTA | -0.0772
77 | GAGCGAAC | -0.0683
78 | GAGCGTCA | -0.0479
79 | CGGTATGA | 0.103
80 | CATGCGTC | -0.0251
81 | ATATCTCG | 0.00582
82 | AGCCGAGC | 0.0959
83 | AAGAGTCA | 0.0374
84 | AATGAAAG | 0.0531
85 | AGCGAGTG | 0.0301
86 | GTGTGCTA | -0.0236
87 | ATAACACC | 0.0736
88 | TCAATACA | 0.073
89 | TAACACGA | 0.201
90 | AGTCCTAA | 0.00092
91 | GGATGACA | 0.249
92 | ATCCAAGG | 0.0167
93 | ACAGTCGG | 0.109
94 | CTTAGTTA | 0.164
95 | ACACACGT | -0.0487
96 | AGCAAAAA | 0.0435
97 | TGGACTAA | 0.0345
98 | CCGAGGCG | 0.0257
99 | TCACGGCA | 0.16
100 | ACTATCGG | 0.0996

Two entries from above, as labelled records:
GGATGACA
  PBM E-score = 0.249
ATCCAAGG
  PBM E-score = 0.0167

(next part)

Row | Sequence | PBM E-score
101 | CAATGTCA | 0.122
102 | CTTCCGTA | 0.0867
103 | ACGTAATC | 0.286
104 | AAGGTCAT | -0.0403
105 | CGGTGCCC | -0.0813
106 | AATTGAGT | 0.101
107 | CTGTAACA | -0.195
108 | AAAAAAGT | -0.06
109 | ACTCTGTG | 0.0645
110 | CCACATCA | -0.0769
111 | ATGGATTC | 0.0094
112 | AACCCCGG | -0.305
113 | ACCCCTGA | -0.0586
114 | GCAATGAA | 0.0772
115 | GTGATAGA | 0.0543
116 | AGTTGGCA | -0.0141
117 | ACTTCACT | -0.00075
118 | AATAAGGA | -0.0943
119 | ATTTAAAG | 0.151
120 | GCGGAAGC | 0.0712
121 | CCGCGATC | 0.17
122 | CTGGGACC | -0.241
123 | AACTCCAG | -0.139
124 | GGCTTAGA | -0.052
125 | CATTCCAC | -0.0176

Row | Sequence | PBM E-score
126 | CTGCTCAA | -0.121
127 | AACCATAG | -0.0765
128 | GGCAAGCA | -0.0921
129 | ACTGTGAC | 0.226
130 | AGATAAAG | -0.0645
131 | ACAATCCA | 0.191
132 | AACTTAGC | 0.0408
133 | ATTTAAAT | 0.0974
134 | GGATTGCC | -0.104
135 | ATGACTCG | -0.131
136 | ACACGAGC | -0.072
137 | ACCTTAAT | -0.0443
138 | CAATTCAA | 0.0951
139 | AATCGGGC | 0.0582
140 | CAAGCATG | -0.00052
141 | CATTCGCG | 0.127
142 | CGACGGGC | -0.0324
143 | CTAACGGC | 0.00942
144 | ACATATAT | 0.155
145 | ACGACGGC | -0.0955
146 | CACTACGG | 0.00941
147 | GTCAGTGA | -0.001
148 | TCCGATCA | 0.0943
149 | AGAGAAAA | 0.158
150 | ATTGGACG | 0.0394

Excerpt: entries 126–127
Row | Sequence | PBM E-score
126 | CTGCTCAA | -0.121
127 | AACCATAG | -0.0765

The results go on:

Row | Sequence | PBM E-score
151 | GTATATAA | 0.182
152 | AGTGACGG | 0.00602
153 | ACTTTGCC | -0.085
154 | CCCTTTGC | -0.143
155 | ATTTCGGC | 0.0331
156 | AGCCAAGA | -0.0925
157 | AGTGTTTA | 0.232
158 | CAGCTGCC | 0.0958
159 | GATTGGCA | -0.00546
160 | AGCTAGAC | 0.0216
161 | CTACCCTC | -0.121
162 | ACCAGCAA | 0.0331
163 | ACGAGCCT | -0.156
164 | GCCCTCGA | -0.0898
165 | CGTAGGCC | -0.103
166 | AGCGTATC | -0.0329
167 | GCGATCAA | 0.0564
168 | GTCATGTA | -0.0686
169 | GCACCCAA | -0.00062
170 | CTAAGCAG | -0.078
171 | ATGGGTTG | 0.133
172 | TCAATCCA | -0.00731

Reformatted: results already given.
Row,Sequence,PBM E-score
10,ATGCGCGG,0.0897
11,CAGGAACA,-0.0906
14,AGGGGGGC,-0.471
18,ACAGCAAG,0.00019
21,AATAACCG,-0.0312
25,AGCCAAGG,0.0527
29,TACTACAA,0.156
31,CATACTCG,0.101
33,AATAAACC,0.0524
35,ATTAACGC,0.0741
38,TCACCGAA,0.0638
49,CGCCCGAC,-0.0329
50,AATATAAC,0.195
51,AAATGGTT,0.145
52,CAGTCCAA,-0.07
66,TGTTCTAA,0.144
70,GCCGTGAA,0.0361
74,AGATTAAG,-0.00576
76,GGTGTCTA,-0.0772
77,GAGCGAAC,-0.0683
81,ATATCTCG,0.00582
83,AAGAGTCA,0.0374
100,ACTATCGG,0.0996
102,CTTCCGTA,0.0867
103,ACGTAATC,0.286
105,CGGTGCCC,-0.0813
108,AAAAAAGT,-0.06
109,ACTCTGTG,0.0645
110,CCACATCA,-0.0769
115,GTGATAGA,0.0543
122,CTGGGACC,-0.241
124,GGCTTAGA,-0.052
130,AGATAAAG,-0.0645
131,ACAATCCA,0.191
132,AACTTAGC,0.0408
138,CAATTCAA,0.0951
139,AATCGGGC,0.0582
140,CAAGCATG,-0.00052
142,CGACGGGC,-0.0324
148,TCCGATCA,0.0943
149,AGAGAAAA,0.158
154,CCCTTTGC,-0.143
159,GATTGGCA,-0.00546
160,AGCTAGAC,0.0216
162,ACCAGCAA,0.0331
165,CGTAGGCC,-0.103
167,GCGATCAA,0.0564
170,CTAAGCAG,-0.078
